Molecules are shown by their SMILES. The list shows a part of the results. Further columns of the screen follow, without active or inactive calls. Compounds called inactive in the main read-out are mostly missing here. The note in brackets gives the kind of curve behind each potency; many fits are weak.

The nature of this test: qHTS Assay for Lipid Storage Modulators in Drosophila S3 Cells.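 As to cell number change: cells counted by Cell Tracker Red CMTPX staining in the red channel.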 The settings on record: BODIPY lipid droplet fluorescence, 18-24 h; for cell number change: measured here: cell count max response, cells fed with added oleic acid. The method, boiled down: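 Laser-scanning cytometry quantifies lipid droplet accumulation (500–530 nm total intensity; droplet/cell object ratio) in oleic acid-fed (400 uM added) Drosophila S3 cells treated with a concentration series. 20 uM Triacsin C defined 100% inhibition.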
Background: qHTS replaces the single test concentration by a dilution series.

The mark [1] stands for this setting: measured here: lipid fluorescence (Fed channel) AC50, cells fed with added oleic acid.
The mark [2] stands for this setting: measured here: cell number channel AC50, cells fed with added oleic acid.

Turning to `Cc1ccc(NC(=O)COC(=O)c2ccc(=O)n(Cc3ccccc3)n2)cc1F`, the cell number change is 22.5%. As usually defined, the AC50 is the concentration giving half of the maximal activity seen. With `CN(C)CCCCCN(C)Cc1cc2ccccc2o1`, the cell number change is -9%. Also, under setting [1], the AC50 is 0.651 µM [falling, single point]. In the case of `COC(=O)c1sccc1-c1ccc(C(=O)Nc2cccnc2)o1`, the cell number change is -7.5%. The AC50 under setting [1] was 29.1 µM [rising, single point]. For `Cc1ccc(OCC(=O)N(C)CC(=O)Nc2ccc(N3CCOCC3)cc2)cc1`, the cell number change was -40.4%. Moreover, the AC50 under setting [2] is 5.8 µM [falling, full curve]. In addition, the AC50 under setting [1] is 7.31 µM [falling, partial curve, poor fit]. On to `O=C(CSc1cn[nH]n1)Nc1ccc(O)c(C(=O)O)c1`, for which the cell number change was -3.85%. The AC50 under setting [1] was 5.17 µM [rising, single point]. For `COc1ccc(-c2noc(CNC(=O)c3ccoc3C)n2)cc1OC`, the cell number change is -11.8%. For `N=c1sccn1CC(=O)Nc1ccc(SC(F)F)cc1`, the cell number change is -13.3%. `Cc1ccc(C2NC(=NCc3ccccc3)Nc3nc(C)cc(=O)n32)cc1` (stereo unspecified): the cell number change stood at 24.8%. Also, under setting [2], the AC50 was 1.46 µM [rising, full curve, poor fit]. For `CC(=O)c1ccccc1OCCOCCOc1ccccc1C(C)=O`, the cell number change worked out at 1.69%. In addition, the AC50 under setting [1] is 9.2 µM [rising, partial curve]. Consider `CCOc1ccc(NC(=O)CC2S/C(=N/N=C3CCCCCC3)NC2=O)cc1` (stereo unspecified), for which the AC50 under setting [1] is 10.3 µM [rising, partial curve]. For the compound `CCOc1ccc(/C=N/NC(=O)Nc2ccccc2)cc1`, the cell number change was -34.4%. Further, the AC50 under setting [2] was 13 µM [falling, partial curve]. The AC50 under setting [1] is 18.4 µM [falling, partial curve]. On to `Cc1ccc(C(=O)CN(C(=O)c2ccc(Cl)c(Cl)c2)N2C(=O)C3CCCCC3C2=O)cc1C` (stereo unspecified), for which the cell number change came to 13.1%. Regarding `CC(Oc1ccc(Cl)cc1)c1ccc(C#N)c(=O)[nH]1` (stereo unspecified), the cell number change was -5.63%. Also, the AC50 under setting [2] is 0.092 µM [rising, full curve, poor fit]. In the case of `O=C(COC(=O)c1cnccn1)c1ccc2c(c1)CCCC2`, the cell number change is -6.53%. Moreover, the AC50 under setting [1] was 7.31 µM [rising, partial curve, poor fit]. For `CCC1CCC(N2CCN(c3ccccc3F)CC2)CC1` (stereo unspecified), the cell number change was determined as 8.58%. Consider `Oc1ccccc1C1CCCCC1c1ccccc1` (stereo unspecified), for which the cell number change was -9.01%. Besides, under setting [1], the AC50 was 29.1 µM [falling, single point]. Consider `COc1ccc(C)cc1NCc1ccc([N+](=O)[O-])cc1`, for which the cell number change turned out to be 27.4%. The AC50 under setting [2] was 0.259 µM [rising, full curve, poor fit]. In the case of `Cc1ccc2nc(N(CCCN(C)C)C(=O)c3ccc4ncsc4c3)sc2c1`, the cell number change came to 23.9%.

As for `CCc1onc(C)c1C(=O)Nc1ccc(N2CCOCC2)cc1`, the cell number change is -66.7%. Further, under setting [2], the AC50 was 25.9 µM [falling, partial curve, poor fit]. Also, the AC50 under setting [1] is 25.9 µM [falling, partial curve, poor fit]. `O=C(COC(=O)/C=C/c1ccc(C(F)(F)F)cc1)NCCC1=CCCCC1`: the cell number change is 0.647%. The same measure, in the same setting: next, `CC(=O)c1cccc(NC(=O)Cn2nc(-c3ccc(Cl)cc3)ccc2=O)c1`: 8.98%. Consider `O=C(O)c1ccc(N/N=C/c2cn(Cc3ccccc3F)c3ccccc23)cc1`, for which the cell number change is 11.7%. In addition, the AC50 under setting [1] was 29.1 µM [rising, single point]. In the case of `COc1ccc(-n2cc(CN(C)C3CCOCC3)c(-c3cccc(F)c3)n2)cc1`, the cell number change stood at 18.1%. For the same compound, the AC50 under setting [1] is 16.4 µM [rising, single point]. On to `COc1ccc(-c2cc(C(=O)OCC(=O)N(C)C)c3ccccc3n2)cc1`, for which the cell number change turned out to be 19.6%. In addition, the AC50 under setting [2] is 0.92 µM [rising, partial curve]. Further, under setting [1], the AC50 was 0.517 µM [rising, full curve]. For `CCCCN(CCCNC(=O)Cn1nc(CC)n2c(cc3sc(C)cc32)c1=O)Cc1ccccc1`, the cell number change was determined as 34.6%.

Consider `CC(Sc1n[nH]c(N)n1)C(=O)C12CC3CC(CC(C3)C1)C2` (stereo unspecified), for which the concentration at half-maximal activity (AC50) was 0.731 µM [rising, single point] under setting [2] and 0.651 µM [rising, single point] under setting [1]. Consider `O=C(NNC(=O)C1CCN(Cc2cccc(F)c2)CC1)c1cccs1`, for which the cell number change was 20.6%. Further, the AC50 under setting [1] was 16.4 µM [rising, single point]. On to `CC(C)CCNc1ncnc2c1nnn2Cc1ccccc1`, for which the cell number change was 3.16%. With `O=C(Nc1ncccc1Cl)C(Sc1ccccc1)c1ccccc1` (stereo unspecified), the cell number change is -19.2%. Moreover, the AC50 under setting [1] is 29.1 µM [falling, single point]. On to `O=C(NCCCn1ccnc1)c1cc(-c2cccnc2)nc2ccc(Br)cc12`, for which the cell number change was determined as 164%. For `COCCn1nnnc1C(c1cccs1)N1CCN(c2cccc(C(F)(F)F)c2)CC1` (stereo unspecified), the cell number change worked out at 4.3%. Further, the AC50 under setting [1] was 25.9 µM [rising, single point]. For `O=C(/C=C/c1ccccc1)c1ccccn1`, the cell number change was -46.3%. Further, the AC50 under setting [2] was 23.1 µM [falling, single point]. Besides, the AC50 under setting [1] was 32.6 µM [falling, single point]. Regarding `O=C(CSc1nc(-c2ccco2)cc(C(F)(F)F)n1)Nc1ccccc1C(F)(F)F`, the cell number change was -33.3%. In addition, the AC50 under setting [2] is 7.31 µM [falling, partial curve]. Also, the AC50 under setting [1] was 9.2 µM [falling, partial curve]. For `Cc1cc(Cl)ccc1OCC(=O)NCCOc1nc(N2CCCCC2)nc(N2CCOCC2)n1`, under setting [1], the AC50 was 5.17 µM [rising, full curve].

`Cn1c(=O)n(CC(=O)O)c(=O)c2c1nc1n2CCCN1CCc1ccccc1`: the cell number change came to 6.08%. The AC50 under setting [1] was 0.259 µM [rising, full curve].

`CCN(CC)S(=O)(=O)c1ccc(/C=C/C(=O)OCC(=O)NCc2cccs2)cc1`: the cell number change was -43.7%. For the same compound, under setting [2], the AC50 is 32.6 µM [falling, partial curve]. For the same compound, the AC50 under setting [1] is 0.731 µM [falling, full curve]. Consider `O=C(Nc1ncc2c(n1)CC(c1ccc(Cl)cc1)CC2=O)c1ccco1` (stereo unspecified), for which the cell number change turned out to be 7.98%. Take `COc1cccc(CN(C)C(=O)c2ccc(C)c(S(=O)(=O)N3CCCCC3)c2)c1`: the cell number change was determined as 11.5%. In addition, the AC50 under setting [2] is 0.13 µM [falling, full curve, poor fit]. Also, the AC50 under setting [1] is 0.082 µM [falling, full curve, poor fit]. As to `COc1ccsc1NC(=O)OCc1ccc(Cl)cc1`, the cell number change was 32.2%. In addition, the AC50 under setting [2] is 11.6 µM [rising, partial curve]. Under setting [1], the AC50 is 9.2 µM [rising, partial curve]. In the case of `Cc1cccc(-c2n[nH]c(=S)n2Cc2ccccc2)c1`, the cell number change was -44.4%. Further, the AC50 under setting [2] was 20.6 µM [falling, single point]. Moreover, the AC50 under setting [1] was 20.6 µM [falling, single point].

(Values after PubChem BioAssay AID2685 (National Center for Advancing Translational Sciences (NCATS), 2010).)
